# Library screening results

Measurements from “University of Dundee, Small-Polar-MMV Screening Library” (2021), ChEMBL document CHEMBL3988442.

Results are given as percent effect.
How 0% and 100% were set is not recorded. Most values in the screen are low, and negative values occur.
Compounds were drawn at random from those tested, without regard to their results.
Two or more numbers in one place are separate tests of the same structure; such repeats can differ widely.

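Viability assay of Plasmodium falciparum sporozoites; the read-out is not stated. The concentration is filed as 10 mM, unlikely as a test dose, so the dose is not known. Higher reads as lower viability (inferred: compounds with an IC50 in retests scored well above the rest). Strong results were mostly tested again. Of about 34,000 compounds tested this way, about 280 (0.84%) reached 50% or more in at least one test.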

CCn1nc2c(cc1=O)CN(Cc1nnc(C3CC3)o1)CC2 gave -0.3195%.
CCc1noc(C(C)N(C)CC(=O)Nc2cccc(C)n2)n1 (stereo not drawn) gave 0.1181%.
CC(=O)N1CCC(c2ncc(C(=O)Nc3ccccc3)c(C)n2)CC1 gave 11.61%.
CC(C)c1nn(C)c(N(C)C)c1CNCC(O)c1cccc(F)c1 (stereo not drawn) gave 4.048%.
Cc1nc(C)n(C2CCCN(C(=O)CCCNc3ncccn3)C2)n1 (stereo not drawn) gave 0.94%.
[H][C@@]12CCN(S(=O)(=O)CCC)[C@]1([H])CC[C@@H](c1nnc(C)o1)O2 gave 19.36%.
Cc1nccnc1N1CCC2(CCCN(C3CCOCC3)C2=O)C1 (stereo not drawn) gave 0.4677%.
O=C(Nc1ccc(F)cc1F)N(CCC(F)(F)F)C[C@H](O)CO gave -16.8%.
Cc1nc(C)n(CC2CCCN(Cc3cc(C#N)ccc3F)C2)n1 (stereo not drawn) gave 6.34%.
COC(=O)c1cccn1C1CCN(C(=O)c2cc(C)ccc2O)CC1 gave 2.289%.
COc1c(C2CCCN2C(=O)c2scnc2C)c(C)nn1C (stereo not drawn) gave -9.109%.
Cc1cc(-c2nn(C)c(Cl)c2CN2CCCCC(N)C2)no1 (stereo not drawn) gave 5.843%.
CN(CC(=O)N1CCCC1c1noc(C2CC2)n1)C1CC1 (stereo not drawn) gave -11.33% and -12.4%.
CNC(=O)c1cn[nH]c1C1CCN(Cc2cn(C)nc2C)C1 (stereo not drawn) gave -5.827%.
O=C(c1n[nH]c2c1CCC2)N1CCCC1c1nc(-c2ccccc2)no1 (stereo not drawn) gave -8.215%.
O=C(O)C(F)(F)F.[H][C@@]12COC[C@H](C(=O)N3CCCCO3)[C@]1([H])CN(Cc1cc(C)c(C)o1)C2 gave 5.241% and -2155% and -1942%.
Cc1ccc(C)c(NC(=O)c2cc(S(=O)(=O)N3CCSCC3)c[nH]2)c1 gave -10.54%.
CCOc1ncnc2c1CCN(S(=O)(=O)c1ccccc1)CC2 gave -5.401%.
Cl.Cn1ccnc1N1CCN(C(=O)Cc2ccc(Cl)cc2)CC1 gave 25.87%.
Cc1cnn(CCNCc2csc(-c3ccc(F)cc3)n2)c1 gave 11.38%.
[H][C@@]12CCCO[C@]1([H])[C@@H](NS(C)(=O)=O)CN2C(=O)c1cscn1 gave -19.62%.
CNC(=O)C1(CCCc2ccccn2)CN(Cc2nccn2C)C1 gave 1.098%.
O=C(O)C(F)(F)F.[H][C@@]12CCN(CCOCc3ccccc3)[C@]1([H])CC[C@H](C(=O)NC)O2 gave 11.84%.
N#CC(NC(=O)c1cccc2c1OCCO2)c1ccc(F)cc1F (stereo not drawn) gave -4.929%.
CC(NC(=O)NCC1(O)CCC1)c1ccc(OCC2CC2)c(F)c1 (stereo not drawn) gave 1.917%.
Cc1ccc(CCCC(=O)N2CCCC(CS(N)(=O)=O)C2)s1 (stereo not drawn) gave -9.537%.
Cc1cnc(C(=O)N2Cc3ncn(C)c3C(COCC(C)C)C2)cn1.O=C(O)C(F)(F)F (stereo not drawn) gave -5.604%.
Cc1c[nH]nc1C1CCCCN1C(=O)CC1(O)CCCCC1 (stereo not drawn) gave 0.6695%.
COc1ccc(CCNC(=O)NCC(O)c2cccc(F)c2)cc1 (stereo not drawn) gave -7.488%.
O=C(O)C(F)(F)F.[H][C@]12CN(Cc3cccc(Cl)c3)C[C@@]1([H])S(=O)(=O)CC[C@@H]2C(=O)NCC(C)C gave -13.08%.
O=C(O)C(F)(F)F.O=C(c1ccno1)N1CCc2ncnc(-c3ccncc3)c2CC1 gave -7.106%.
CN1CCCN(C(=O)c2ccc3c(c2)nc(N2CCOCC2)n3C)CC1 gave -10.3%.
Cc1nccn1-c1cccc(C2CCCN2S(=O)(=O)N(C)C)n1 (stereo not drawn) gave -11.78%.
CNC(=O)c1ccc(C2CCCN(C(=O)c3sc(C)nc3C)C2)nc1 (stereo not drawn) gave 1.03%.
CN1CCC/C1=N\S(=O)(=O)c1ccc(NC(=O)CCc2cccs2)cc1 gave -11.73%.
CS(=O)(=O)N[C@H]1CCO[C@]2(CCN(CC3CCOCC3)C2)C1.O=C(O)C(F)(F)F gave -4.796%.
Cc1ccccc1OCCN1CCCC(c2cc(C(N)=O)[nH]n2)C1 (stereo not drawn) gave -4.206%.

The first 3 entries again:

* CCn1nc2c(cc1=O)CN(Cc1nnc(C3CC3)o1)CC2 : -0.3195%
* CCc1noc(C(C)N(C)CC(=O)Nc2cccc(C)n2)n1 (stereo not drawn) : 0.1181%
* CC(=O)N1CCC(c2ncc(C(=O)Nc3ccccc3)c(C)n2)CC1 : 11.61%